Test results reported in patent publication US7449185 (Daiichi Sankyo, dated 2008).
Like-named read-outs stand apart in the source and are kept apart here. Results are given in words; binding and its absence hold for the method and conditions named. Some binding calls cover weakened binding; strength is not graded here. For part of these data: Tags and fused reporters may be left off the sequences shown.

Sequences of proteins named here, by UniProt entry; tags and fusion partners are left off. A change or cut given only in a name is not applied to a line headed by its entry.
UniProt O35235: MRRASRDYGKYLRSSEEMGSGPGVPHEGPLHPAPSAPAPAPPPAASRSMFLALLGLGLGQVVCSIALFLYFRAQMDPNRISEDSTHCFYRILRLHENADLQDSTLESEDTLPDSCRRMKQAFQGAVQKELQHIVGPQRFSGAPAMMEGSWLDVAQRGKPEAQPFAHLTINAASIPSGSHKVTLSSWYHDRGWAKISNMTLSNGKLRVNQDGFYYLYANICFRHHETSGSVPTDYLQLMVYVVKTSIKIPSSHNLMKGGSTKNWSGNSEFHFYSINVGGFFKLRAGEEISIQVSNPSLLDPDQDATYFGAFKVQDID

Tests used:
[1] = molecular target: T1, osteoclastogenesis inhibitory factor (OCIF), recombinant, monomer or dimer type not specified at the place of use (human) (UniProt O00300); test: ELISA: capture by anti-thioredoxin antibody, OCIF added, peroxidase-labeled anti-OCIF antibody
T1 sequence (125I on tyrosine residues where used as 125I-labeled OCIF (Iodogen method), looked up): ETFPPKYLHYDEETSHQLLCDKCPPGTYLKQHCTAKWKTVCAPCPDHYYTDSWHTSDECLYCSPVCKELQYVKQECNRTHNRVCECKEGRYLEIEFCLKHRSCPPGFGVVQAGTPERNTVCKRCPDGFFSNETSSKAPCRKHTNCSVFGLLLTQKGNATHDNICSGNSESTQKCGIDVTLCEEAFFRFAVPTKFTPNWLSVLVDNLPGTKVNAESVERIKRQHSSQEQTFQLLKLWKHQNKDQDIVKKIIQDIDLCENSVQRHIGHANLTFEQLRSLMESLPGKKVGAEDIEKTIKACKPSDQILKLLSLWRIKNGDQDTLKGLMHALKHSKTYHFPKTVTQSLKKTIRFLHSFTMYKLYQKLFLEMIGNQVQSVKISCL

[2] = molecular target: natural OCIF-binding protein (mouse OBM) on mouse osteoblastic stromal ST2 cells cultured with active-form vitamin D3 and dexamethasone (mouse) (UniProt O35235); test: 125I-OCIF binding to ST2 cells, time course
[3] = molecular target: mouse OBM expressed on COS-7 cells transfected with pOBM291 (mouse) (UniProt O35235); test: DSS crosslinking on pOBM291-transfected COS-7 cells, SDS-PAGE, autoradiography
[4] = molecular target: T2, human OBM expressed on COS-7 cells transfected with phOBM (human) (UniProt O14788); test: DSS crosslinking on phOBM-transfected COS-7 cells, SDS-PAGE, autoradiography
T2 sequence: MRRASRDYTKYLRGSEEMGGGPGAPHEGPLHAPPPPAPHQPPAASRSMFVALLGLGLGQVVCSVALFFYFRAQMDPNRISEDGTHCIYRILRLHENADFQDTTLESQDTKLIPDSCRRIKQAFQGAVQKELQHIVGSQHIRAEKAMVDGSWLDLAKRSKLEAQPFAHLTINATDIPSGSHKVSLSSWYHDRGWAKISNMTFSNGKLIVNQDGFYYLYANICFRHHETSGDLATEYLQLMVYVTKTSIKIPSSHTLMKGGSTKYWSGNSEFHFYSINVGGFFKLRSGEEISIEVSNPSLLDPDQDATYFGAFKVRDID

[5] = molecular target: natural OCIF-binding protein (mouse OBM) on mouse osteoblastic stromal ST2 cells cultured with active-form vitamin D3 and dexamethasone (mouse) (UniProt O35235); test: DSS crosslinking on ST2 cells, SDS-PAGE, autoradiography
[6] = molecular target: T3, human soluble OBM (hsOBM) (human) (UniProt O14788); test: ELISA: culture supernatant immobilized, rOCIF 3-100 ng/ml, peroxidase-labeled anti-OCIF antibody
T3 sequence: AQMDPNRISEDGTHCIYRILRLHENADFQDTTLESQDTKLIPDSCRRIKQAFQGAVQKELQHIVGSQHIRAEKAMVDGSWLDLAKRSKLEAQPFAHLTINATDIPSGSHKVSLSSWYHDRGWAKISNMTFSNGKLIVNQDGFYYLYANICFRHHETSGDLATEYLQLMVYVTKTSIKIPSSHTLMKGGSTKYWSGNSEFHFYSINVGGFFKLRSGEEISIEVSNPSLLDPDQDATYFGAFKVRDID

[7] = molecular target: mouse soluble OBM (msOBM) (mouse) (UniProt O35235); test: as above
[8] = molecular target: mouse OBM expressed on COS-7 cells transfected with pOBM291 (mouse) (UniProt O35235); test: expression cloning: 125I-OCIF (20 ng/ml) binding to transfected COS-7 cells
[9] = molecular target: natural type purified OCIF-binding protein from ST2 cell membranes (mouse) (UniProt O35235); test: OCIF added to column fractions, immunoprecipitation with anti-OCIF polyclonal antibody, SDS-PAGE
[10] = molecular target: T3, human soluble OBM (hsOBM) (human); test: ELISA: conditioned medium immobilized, OCIF 3-100 ng/ml, peroxidase-labeled anti-OCIF antibody
[11] = molecular target: secreted-form OBM (mouse) in conditioned medium of 293-EBNA cells transfected with pCEP sOBM (Example 14) (mouse) (UniProt O35235); test: as above
[12] = molecular target: T2, human OBM expressed on COS-7 cells transfected with phOBM (human); test: 125I-OCIF (20 ng/ml) binding to transfected COS-7 cells; inhibited by 400-fold unlabeled OCIF
[13] = molecular target: mouse OBM expressed on COS-7 cells transfected with pOBM291 (mouse) (UniProt O35235); test: 125I-OCIF (20 ng/ml) binding to transfected COS cells; inhibited by 400-fold unlabeled OCIF
[14] = molecular target: natural type purified OCIF-binding protein from ST2 cell membranes (mouse) (UniProt O35235); test: OCIF-immobilized affinity column, SDS-PAGE of eluate
[15] = molecular target: natural OCIF-binding protein (mouse OBM) on mouse osteoblastic stromal ST2 cells cultured with active-form vitamin D3 and dexamethasone (mouse) (UniProt O35235); test: 125I-OCIF (monomer or dimer form, 20 ng/ml) binding to cultured cells, gamma counting
[16] = molecular target: T4, calcitonin receptor on TRAP positive cells formed from mouse spleen cells (mouse) (UniProt Q60755); test: binding of 125I-calcitonin to TRAP positive cells induced by fixed phOBM-transfected COS-7 cells
T4 sequence (looked up): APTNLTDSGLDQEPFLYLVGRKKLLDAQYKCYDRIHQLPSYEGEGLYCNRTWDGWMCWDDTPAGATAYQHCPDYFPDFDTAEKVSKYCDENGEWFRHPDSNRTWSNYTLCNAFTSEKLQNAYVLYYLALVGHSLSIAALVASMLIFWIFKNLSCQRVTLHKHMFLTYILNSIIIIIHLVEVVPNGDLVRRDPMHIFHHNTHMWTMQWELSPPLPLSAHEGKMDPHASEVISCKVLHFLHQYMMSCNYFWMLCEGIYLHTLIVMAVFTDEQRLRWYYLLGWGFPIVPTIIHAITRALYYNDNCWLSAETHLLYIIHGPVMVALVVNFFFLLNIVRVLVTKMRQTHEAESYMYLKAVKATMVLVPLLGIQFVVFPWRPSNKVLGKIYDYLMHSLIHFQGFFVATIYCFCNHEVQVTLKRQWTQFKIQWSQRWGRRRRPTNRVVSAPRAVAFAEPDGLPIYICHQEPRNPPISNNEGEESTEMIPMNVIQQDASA

[17] = molecular target: T4, calcitonin receptor on TRAP positive cells formed from mouse spleen cells (mouse); test: binding of 125I-calcitonin to TRAP positive cells induced by Trx-hOBM or secreted-form hOBM
[18] = molecular target: T1, osteoclastogenesis inhibitory factor (OCIF), recombinant, monomer or dimer type not specified at the place of use (human); test: ELISA: capture by anti-thioredoxin antibody, OCIF added, peroxidase-labeled anti-OCIF antibody; remark: listed apart in the source

Measured: binding

thioredoxin-OBM fusion protein (Trx-OBM) (from UniProt O35235 76-316)
binds: [1]

B1: OCIF, monomer type (60 kDa) (receptor, human, UniProt O00300 22-401, looked up)
chain: ETFPPKYLHYDEETSHQLLCDKCPPGTYLKQHCTAKWKTVCAPCPDHYYTDSWHTSDECLYCSPVCKELQYVKQECNRTHNRVCECKEGRYLEIEFCLKHRSCPPGFGVVQAGTPERNTVCKRCPDGFFSNETSSKAPCRKHTNCSVFGLLLTQKGNATHDNICSGNSESTQKCGIDVTLCEEAFFRFAVPTKFTPNWLSVLVDNLPGTKVNAESVERIKRQHSSQEQTFQLLKLWKHQNKDQDIVKKIIQDIDLCENSVQRHIGHANLTFEQLRSLMESLPGKKVGAEDIEKTIKACKPSDQILKLLSLWRIKNGDQDTLKGLMHALKHSKTYHFPKTVTQSLKKTIRFLHSFTMYKLYQKLFLEMIGNQVQSVKISCL
modifications: 125I on tyrosine residues (Iodogen method)
binds: [2] | [3] | [4] | [5]

B2: osteoclastogenesis inhibitory factor (OCIF), recombinant, monomer or dimer type not specified at the place of use (receptor, human, UniProt O00300 22-401, looked up)
chain: ETFPPKYLHYDEETSHQLLCDKCPPGTYLKQHCTAKWKTVCAPCPDHYYTDSWHTSDECLYCSPVCKELQYVKQECNRTHNRVCECKEGRYLEIEFCLKHRSCPPGFGVVQAGTPERNTVCKRCPDGFFSNETSSKAPCRKHTNCSVFGLLLTQKGNATHDNICSGNSESTQKCGIDVTLCEEAFFRFAVPTKFTPNWLSVLVDNLPGTKVNAESVERIKRQHSSQEQTFQLLKLWKHQNKDQDIVKKIIQDIDLCENSVQRHIGHANLTFEQLRSLMESLPGKKVGAEDIEKTIKACKPSDQILKLLSLWRIKNGDQDTLKGLMHALKHSKTYHFPKTVTQSLKKTIRFLHSFTMYKLYQKLFLEMIGNQVQSVKISCL
modifications: 125I on tyrosine residues where used as 125I-labeled OCIF (Iodogen method)
binds: [6] | [7] | [8] | [9] | [10] | [11] | [12] | [13] | [14] | [15]

CSNLSTCVLGKLSQELHKLQTYPRTNTGSGTP (peptide, UniProt P01263 83-114, looked up, 125I-labeled) [125I-labeled salmon calcitonin (Amersham Co.)]
binds: [16] | [17]

B3: thioredoxin-human OBM fusion protein (Trx-hOBM) (protein, not shown: large carriers)
chain: DPNRISEDGTHCIYRILRLHENADFQDTTLESQDTKLIPDSCRRIKQAFQGAVQKELQHIVGSQHIRAEKAMVDGSWLDLAKRSKLEAQPFAHLTINATDIPSGSHKVSLSSWYHDRGWAKISNMTFSNGKLIVNQDGFYYLYANICFRHHETSGDLATEYLQLMVYVTKTSIKIPSSHTLMKGGSTKYWSGNSEFHFYSINVGGFFKLRSGEEISIEVSNPSLLDPDQDATYFGAFKVRDID
binds: [18]
